Laboratory results reported in PMC12040169 (PLOS Biology, 2025).
Some of the results follow.

tested on: T1, CTL2-GFP (C. trachomatis L2/434/Bu, GFP-expressing); design: species or system HeLa; Intracellular C. trachomatis growth in HeLa cells, bulk GFP fluorescence relative to DMSO; details: bulk GFP, single well; 28.5 h, 10 µM; inhibitor
T1 construct: L2/434/Bu, GFP-expressing

In order of rising “% of control remaining” value:
1. CO[C@@]12CC[C@@H](OCC(=O)O)C[C@@H]1N(Cc1ccccc1C)CC2 [CBK307548]  67.1181%
2. NC(=O)CSc1nnc2ccc3ccccc3n12 [CBK287794]  71.2864%
3. NS(=O)(=O)c1ccc(/N=C/c2cccc(OCc3ccccc3)c2)cc1 [CBK261594]  73.7748%
4. O=C(NC1CCCCC1)[C@@H]1C=CCN1C(=O)c1cccs1 [CBK284338]  78.2001%
5. O/N=C1\CC(c2ccccc2)Oc2ccc(Cl)cc21 (centres unmarked) [CBK288370]  82.5829%
6. COc1ccc(-c2noc(CN(C(C)=O)C3CCCCC3)n2)cc1 [CBK270264]  84.992%
7. Cc1cc(S(=O)(=O)Nc2ccccc2-c2nnnn2C(C)C)c(C)o1 [CBK306259]  86.157%
8. CCOc1cc(OCC)cc(C(=O)N2CCC3(CC2)CC(=O)c2ccc(OCC)c(C)c2O3)c1 [CBK168015]  87.0683%
9. O=C(C1CCCC1)N1CCC(n2c(=O)oc3ccc(Cl)cc32)CC1 [CBK284344]  87.9341%
10. Cc1nc2ccccn2c1-c1csc(N)n1 [CBK288628B]  89.1862%
11. O=C(Nc1ccc(Cc2ccncc2)cc1)c1ccc(-c2cc3ccccc3oc2=O)cc1 [CBK268952]  89.7756%
12. O=C(c1cc2cc(Cl)ccc2[nH]1)N1CCN(c2ccccn2)CC1 [CBK107343]  91.8673%
13. COc1ccccc1-c1nccnc1OC [CBK106811]  92.9283%
14. COc1ccccc1Cc1cccc(C2CCCN2C(=O)Cc2c[nH]c3ccccc23)n1 (centres unmarked) [CBK286139]  93.4963%
15. NS(=O)(=O)c1ccc(NC(=O)c2ccc3ccccc3c2)cc1 [CBK264338]  95.0913%
16. Cc1ccc(SCC(=O)Nc2cc(C)on2)cc1 [CBK057070]  96.813%
17. O=C(CSCc1ccccc1)Nc1ccc(O)cc1C(=O)O [CBK126817]  97.1617%
18. Cc1cc(C)c(C)c(OCC(=O)N(Cc2nc(-c3ccccc3)no2)C2CCCCC2)c1 [CBK268974]  97.7924%
19. O=C1CC(N2CCN(c3ccccc3)CC2)C(=O)N1c1cccc2ccccc12 (centres unmarked) [CBK261263]  100%
20. COC(=O)c1cn(C(=O)COc2ccc(Cl)cc2)c2ccccc12 [CBK262598]  100%
21. O=C(CN1C(=O)c2ccccc2C1=O)Nn1cnnc1 [CBK263789]  100%
22. Cc1ccc(NC(=O)CN2C(=O)S/C(=C\c3cc(C)n(-c4ccc(C(=O)O)cc4)c3C)C2=O)cc1 [CBK264465]  100%
23. COCCN(C(=O)CSc1ccc2ccccc2n1)C1CCS(=O)(=O)C1 (centres unmarked) [CBK304988]  100.647%
24. Nc1ccc(-c2nc(NC(=O)Cc3ccccc3)cnc2-c2ccc(F)c(Cl)c2)cc1 [CBK036690]  101.084%
25. CN1CCN(C(=O)CNS(=O)(=O)c2cc(F)c(Br)cc2F)CC1 [CBK034481]  102.568%
26. O=C(Nc1cc2ccccc2c(Br)n1)c1ccc(C(F)(F)F)cc1[N+](=O)[O-] [CBK063299]  103.139%
27. CN1CC[C@H](c2nc3ncccc3[nH]2)C1 [CBK289384]  103.148%
28. CC(=O)NCc1cccc(-c2cc(C(=O)O)cnc2-c2ccc(Cl)cc2)c1 [CBK156194]  103.279%
29. CCOc1ccccc1OCC(=O)NN [CBK261782]  106.559%
30. OCCC1CNCCN1Cc1ccc(F)c(F)c1 (centres unmarked) [CBK269824]  106.71%
31. Cc1cc(C)c2c(c1)cc(C)c1nn(CC(=O)N(C)C)c(=O)n12 [CBK283927]  106.939%
32. COc1ccccc1NC(=O)Cn1cc(C(=O)c2cccs2)c2ccccc21 [CBK268256]  109.228%
33. N=C(N)NCC(=O)N(CCc1cc(C(F)(F)F)cc(C(F)(F)F)c1)c1cccc2ccccc12 [CBK001122T]  109.967%
34. Cc1cccnc1C(NC(=O)C1CCN(C/C=C/c2ccco2)CC1)c1ccc(Cl)cc1 (centres unmarked) [CBK148201]  110.428%
35. CC(C)CNC(=O)c1cc([C@H]2CC[C@H](CNC(=O)Cn3cccn3)CC2)nc2ccccc12 [CBK285860]  111.726%
36. CC1(C)[C@H](Cc2cc(CO)on2)C[C@@H]1NS(=O)(=O)c1ccccc1 [CBK289234]  112.982%
37. O=c1[nH]c(=O)c2cc(S(=O)(=O)Nc3ccccc3-c3ccccc3)ccc2[nH]1 [CBK286374]  112.999%
38. CC(=O)Nc1ccc(C(=O)N2CCNC(=O)C2Cc2ccccc2-c2cccc(C)c2)cc1 (centres unmarked) [CBK285837]  113.505%
39. CC(C)C[C@@H](C(=O)N1CCC(C(=O)O)CC1)n1c(=O)[nH]c2ccccc2c1=O [CBK286762]  114.258%
40. CCOC(=O)C1CSCCN1C(=O)c1cc(C)n(-c2nccs2)c1C (centres unmarked) [CBK305884]  115.842%
41. O=C(NCc1ccncc1)OCCc1ccncc1 [CBK200133]  116.299%
42. O=C(NCCCNC(=O)c1ccc(Br)o1)c1ccccn1 [CBK269430]  118.061%
43. Cc1cc2c(s1)c1cnn(CC(=O)N3CCCC3)c(=O)c1n2C [CBK284153]  119.355%
44. Cc1cc(CNC(=O)CCc2c(C)nc3nc(N)nn3c2C)ccc1F [CBK306212]  119.911%
45. O=[N+]([O-])c1ccc(N2CCN(S(=O)(=O)c3ccc4ccccc4c3)CC2)cc1NC1CC1 [CBK264361]  120.424%
46. c1ccc(CC(Cc2nc3ccccc3[nH]2)c2nc3ccccc3[nH]2)cc1 (centres unmarked) [CBK150452]  120.888%
47. COC(=O)C1CCCCN1S(=O)(=O)c1cccc2cccnc12 (centres unmarked) [CBK051244]  121.557%
48. Cc1ccc(S(=O)(=O)N2c3ccc(C(=O)O)cc3CC2C)cc1 (centres unmarked) [CBK286584]  122.526%
49. O=C(NCc1ccc(-c2csnn2)cc1)c1cccc(C(F)(F)F)c1 [CBK149293]  122.775%
50. Cc1ccc(NC(=S)N(CCN(C)C)Cc2cc3ccc(C)cc3[nH]c2=O)c(C)c1 [CBK135134]  123.601%
51. Fc1cc(Br)c(CNCc2ccno2)c(N2CCCCC2)c1F [CBK304723]  125.779%
52. Cc1cc(C)n(CCn2cc(-c3ncc[nH]3)nn2)c(=O)n1 [CBK307554]  126.403%
53. CCOC(=O)c1cnn(C2CCCN(Cc3cccs3)C2)c1 (centres unmarked) [CBK305121]  127.277%
54. Cn1ccnc1C1(O)CC2CCC(C1)N2C(=O)c1ccccc1F (centres unmarked) [CBK284085]  128.103%
55. Cc1cccc(-c2csc3c(=O)[nH]c(N4CCC(C(=O)NCCN(C)C)CC4)nc23)c1 [CBK215633]  129.841%
56. CC(=O)CCCCC(=O)N1CCC2(CC1)CC(=O)c1cc(C)c(C)cc1O2 [CBK156497]  130.027%
57. CN(C)S(=O)(=O)N(CC(=O)Nc1cccc([N+](=O)[O-])c1)c1ccccc1 [CBK265904]  130.718%
58. Cn1nccc1C(=O)N[C@H]1C2CCCCC2[C@@H]1c1ccccc1 (some centres unmarked) [CBK285127]  130.822%
59. CN1CCN(C(=O)CCn2c(C(F)(F)F)cc3cccnc32)CC1 [CBK284896]  132.31%
60. O=C(c1n[nH]c2ccccc12)N1CCc2ccccc21 [CBK200282]  134.602%
61. O=S(=O)(c1ccccc1)C1CC1 [CBK023184]  134.781%
62. Cc1cnc(CNC(=O)N2CCN(c3cc(C(F)(F)F)ccn3)CC2)cn1 [CBK162320]  135.922%
63. CCOC(=O)N1CCC(NS(=O)(=O)c2cc(C(=O)OC)n(C)c2)CC1 [CBK304688]  135.969%
64. Cc1ccccc1OCC(=O)NCC1(N2CCCCC2)CCCCC1 [CBK297752]  138.192%
65. CCCC1CCN(Cc2ccn(Cc3ccc(S(C)(=O)=O)cc3)c2)CC1 [CBK144937]  141.729%
66. N#C/C(=C/c1ccc(-c2ccc(S(N)(=O)=O)cc2)o1)S(=O)(=O)c1ccc(Cl)cc1 [CBK266383]  146.388%
67. OC1(Cn2cnc3ccccc32)CCN(CCc2ccccc2)CC1 [CBK284789]  146.516%
68. O=S(=O)(Nc1nnn[nH]1)c1csc2ccccc12 [CBK062590]  150.089%
69. Cc1nn2c(-c3cccc(NC(=O)CN4CCOCC4)c3)nnc2c2ccccc12 [CBK268383]  155.139%
70. O=C(CCc1ccccc1)N1CCCC1c1n[nH]cc1-c1ccncc1 (centres unmarked) [CBK283436]  158.607%
71. Cc1cnc2c(Cl)c(C(=O)N3CCN(C)C4(CCNCC4)C3)nn2c1 [CBK306513]  159.782%
72. Cc1ccc(S(=O)(=O)Nc2ccc(Nc3cc(-c4cc5ccccc5o4)ncn3)cc2)cc1 [CBK090976]  161.265%
73. CCS(=O)(=O)Nc1ccc(C2=NN(S(=O)(=O)c3ccc(F)cc3)C(c3ccccc3C)C2)cc1 (centres unmarked) [CBK269161]  162.001%
74. CC(C)Nc1nccnc1OCc1ccc(F)cc1 [CBK115644]  171.527%
75. Cn1c2ccccc2c2nnc(SCCCC(=O)c3ccc4c(c3)OCCO4)nc21 [CBK268750]  179.579%
76. Cc1nc(-c2ccccc2)sc1C(=O)C1=C(O)C(=O)N(CCN2CCOCC2)C1c1ccccc1F (centres unmarked) [CBK266511]  180.553%
77. CS(=O)(=O)c1ccc(CNc2nccnc2-c2ccccc2F)cc1 [CBK036836]  189.714%
